In patent publication US20100160226A1 (7TM PHARMA A/S, priority 2007, published 2010):

experiment: general procedure: Fmoc solid-phase peptide synthesis; PAL Peg-PS resin; HCTU; details: whole synthesis, Analytical method A (Rt in min)

| Substance | purity (crude or final not stated) |
| --- | --- |
| H-APLEPVYPGDNATPEQMAQYAADLRRYINTLTRQRY-NH2 | 98.0% |
| H-APLEPVYPGDNATPEQMAQYAADLRRYINTITRQRY-NH2 | 100.0% |
| H-PLEPVYPGDNATPEQMAQYAADLRRYINMITRQRY-NH2 | 95.1% |
| H-PLEPVYPGDNATPEQMAQYAADLRRYINTITRQRY-NH2 | 98.0% |
| H-PLEPVYPGDNATPEQMAQYAADLRRYINTLTRQRY-NH2 | 97.9% |
